Results taken from PubChem BioAssay AID602296 (Broad Institute, 2012).
Among all 2,000 compounds or so, about 190 (9.5%) were called active. Inconclusive results (about 14%) are left out.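 Rule for the calls: active = fitted activation curve crossing 40% at a concentration no higher than the sample's top valid tested dose; inconclusive = flat fitted curve at 30% to 70% activation, or poor curve fit; inactive = signal decrease, flat curve within 30%, or the rest.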 The list lacks most of the strong results.

Assay: sustained heat shock response element induction – cell-based, mouse, luciferase, cherry-pick, dose, confirmation (AID 602296);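 note: test compounds applied by themselves with no MG132 co-treatment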
Settings: NIH3T3-HGL HSF-1 response element luciferase, 48 h; at 26 µM (top of the series) unless noted

Structure (SMILES) | activation
COc1cccc(CNc2ccc([N+](=O)[O-])cc2Cl)c1O | inactive: -1.25%
O=S(=O)(CC(CN1CCCCC1)N1CCCCC1)c1ccc2ccccc2c1 (stereo not drawn) | inactive: 134%
CC(C)(C)c1ccc(OCC(=O)NN2Cc3ccccc3C2=N)cc1 | inactive: 10.8%
Cn1c(=O)c2c(nc(NCCO)n2C)n(C)c1=O | inactive: 8.02%
OC[C@@H](O)C1OC2NC(=S)OC2C1O (stereo partly drawn) | inactive: -1.17%
CSc1ccc(C2C(C#N)=C(N)N(c3ccccc3)C3=C2C(=O)CCC3)cc1 (stereo not drawn) | inactive: 8.29%
Cc1cc(Cl)ccc1C(=O)C1CCCN(C(=O)c2cnsn2)C1 (stereo not drawn) | inactive: 13.6%
C=CCSC1=C(C#N)C(c2cccc(OC)c2)CC(=O)N1 (stereo not drawn) | inactive: -3.87%
CCCCc1ccc(NS(=O)(=O)c2c(C)n(C)c(=O)n(C)c2=O)cc1 | inactive: 12.3%
O=C(Oc1cccc2cccnc12)c1ccc(Br)o1 | inactive: 11.6%
COc1cccc(N(CC(=O)N2CCc3ccccc3C2)S(C)(=O)=O)c1 | inactive: 7.66%
CC(=O)c1ccc(NC(=O)CCCN2C(=O)/C(=C/C(C)=C/c3ccccc3)SC2=S)cc1 | inactive: -9.9%
O=C(c1ccc2nccnc2c1)N1CCCC(Nc2ccc(F)c(F)c2)C1 (stereo not drawn) | inactive: 3.84%
Cc1cccc2cc(CN(Cc3ccco3)C(c3nnnn3CCc3ccccc3)C(C)C)c(=O)[nH]c12 (stereo not drawn) | inactive: -36.5%
CC(C)c1nnc(SCc2ccc(CSc3nnc(C(C)C)n3N)cc2)n1N | inactive: 4.27%
COc1ccc2cc(S(=O)(=O)N3CCCCC3)ccc2c1S(=O)(=O)N1CCCCC1 | inactive: -15.5%
CCn1cc(C(=O)NN)c(=O)c2cc(F)c(NC3CCCCC3)cc21 | inactive: 4.29%
CCN(CC)CCCN1C(=O)c2oc3ccccc3c(=O)c2C1c1cccc(OC)c1OC (stereo not drawn) | inactive: 3.52%
CCOC(=O)c1c(CN2CCC(C)CC2)n(C)c2cc(Br)c(OC)cc12 | inactive: -19.1%
CCCCNc1nc(Nc2ccc(C)c(Cl)c2)c2cnn(C)c2n1 | inactive: -101%

Individual results from above:
Value for COc1cccc(N(CC(=O)N2CCc3ccccc3C2)S(C)(=O)=O)c1 under activation: inactive: 7.66%
Value for CCCCNc1nc(Nc2ccc(C)c(Cl)c2)c2cnn(C)c2n1 under activation: inactive: -101%
Value for Cc1cc(Cl)ccc1C(=O)C1CCCN(C(=O)c2cnsn2)C1 (stereo not drawn) under activation: inactive: 13.6%

The results go on:

Structure (SMILES) | activation
BrC(/C=C\c1ccccc1)=N/Nc1nc(N2CCOCC2)nc(N2CCOCC2)n1 | inactive: -11.9%
O=C(CCCl)Nc1nc2c(s1)CCc1ccccc1-2 | inactive: -39.2% [at 12 µM]
Cc1ccc(N(CCCCN2C(=O)c3ccccc3C2=O)C(=O)c2cccc([N+](=O)[O-])c2)cc1 | inactive: -13.6%
COc1cc(NC(=O)C2=C(N3CCOCC3)/C(=C\c3ccc(Br)cc3)CC2)cc(OC)c1OC | inactive: -13.4%
CCOC(=O)C1=C(c2ccccc2)NC(SC)=C(C#N)C1c1ccco1 (stereo not drawn) | inactive: -20.1%
Cc1cccc(-[n+]2c(C)cc(C)c3c(=O)[nH]c(=O)[nH]c32)c1 | inactive: 2.83%
CC1SC(c2ccc(Cl)cc2)NC1=O (stereo not drawn) | inactive: 2.02%
Cc1ccc(NC(=O)CCS(=O)(=O)c2ccc3c(c2)NC(=O)C(C)S3)nc1 (stereo not drawn) | inactive: -0.18%
CCOC(=O)N1CCN(C(=O)c2cc(-c3ccc(OCC)cc3)nc3ccccc23)CC1 | inactive: -88.9%
C/C(=N\NC(=O)CC1N=C(Cc2ccccc2)NNC1=O)c1ccc(C)cc1 (stereo not drawn) | inactive: -5.66%
S=c1[nH]c2cc(Cl)c3cccnc3c2o1 | inactive: -4.85%
O=c1cc(-c2ccc(Cl)c(Cl)c2)[nH][nH]1 | inactive: -8.95%
O=C(CS(=O)(=O)c1ccccc1)c1cc2cc(F)ccc2oc1=O | inactive: 19.1%
Cc1ccc(C)c(NC(=O)CS(=O)(=O)c2cn(C)c3ccccc23)c1 | inactive: -5.97%
Clc1ccc(CCNc2nc3ccccc3n3nnnc23)cc1 | inactive: -11.4%
CCOC(=O)CC1NCCc2c1[nH]c1ccc(OC)cc21 (stereo not drawn) | inactive: -3.5%
Cc1cccc(C)c1N1CCN(S(=O)(=O)c2ccc(F)cc2)CC1 | inactive: -43.5%
CCOC(=O)COc1ccc(/C=C2/SC(=Nc3ccccc3)N(Cc3cccnc3)C2=O)cc1OC | inactive: -37.4%
CC(C)(C)OC(=O)N1CSC[C@H]1C(=O)NC[C@H](CC(=O)O)c1ccc(Cl)cc1 | inactive: 16.7%
Cc1ccc(C(NC(=O)/C=C\c2ccc3c(c2)OCO3)C(=O)Nc2ccc3c(c2)OCO3)cc1 (stereo not drawn) | inactive: 3.46%

Structure (SMILES) | activation
Clc1ccc(CNC2CCN(Cc3ccccc3)CC2)cc1 | inactive: -6.16%
Cc1cc(NC(=O)CSc2nc3c(sc4ccccc43)c(=O)n2CCCN2CCOCC2)n[nH]1 | inactive: -18.9%
O=c1[nH]c2ccccc2cc1CN(Cc1cccnc1)S(=O)(=O)c1ccc([N+](=O)[O-])cc1 | inactive: -6.59%
CCC(C)Sc1nc2c([nH]c3ccccc32)c(=O)n1C (stereo not drawn) | inactive: 0.12%
O=[N+]([O-])c1cccc(-c2nnc(CNC3CC3)o2)c1 | inactive: 6.78%
CCOC(=O)c1cn[nH]c1C(F)(F)F | inactive: -11.9%
Cc1ccc(-c2csc3nc[nH]c(=O)c23)c(C)c1 | inactive: -7.66%
CCN(Cc1ccccc1)C(=O)C1CCN(C/C(C)=C/c2ccccc2)CC1 | inactive: 6.1%
Cc1ccc(-c2cn(S(=O)(=O)c3ccc(C)cc3)nc2N)cc1 | inactive: -18.8%
O=[N+]([O-])c1ccc(Sc2ncccn2)c([N+](=O)[O-])c1 | inactive: -101%
COc1cc(-c2cn(S(=O)(=O)c3cccc4nsnc34)nc2N)cc(OC)c1OC | inactive: -3.25%
O=C(Nc1ccc(Cl)cc1)Nc1csc([N+](=O)[O-])c1 | inactive: 16.5%
COc1ccc(NS(=O)(=O)c2cccc(C(=O)N(C)Cc3ccc(SC)cc3)c2)cc1 | inactive: -25.7%
Cc1cccc(-c2cc(C(=O)Nc3ccncc3)c3ccccc3n2)c1 | inactive: -1.62%
CCOC(=O)C(=CNc1ccc(C#N)cc1)C(=O)OCC | inactive: 5.11%
O=C(Nc1ccccc1N1CCN(C(=O)c2ccc(Cl)cc2)CC1)c1cccc([N+](=O)[O-])c1 | inactive: 14.5%
CCCCCCC1CCC(C(=O)NC(CCSC)C(=O)NC(C(=O)OC)C(C)C)CC1 (stereo not drawn) | inactive: 3.61%
O=[N+]([O-])c1cccc(-c2ccc3nnc(SCc4ccccn4)n3n2)c1 | inactive: 6.4%
